# No constants are given. Whether binding was seen depends on the method and setting. Binding seen in cells or lysates may run through a third protein. Here binding means that the protein was enriched with, or labelled near, the bait; the list need not be complete.
# Protein sequences, listed by entry. Tags and fused reporters are not part of them.
# UniProt Q16665: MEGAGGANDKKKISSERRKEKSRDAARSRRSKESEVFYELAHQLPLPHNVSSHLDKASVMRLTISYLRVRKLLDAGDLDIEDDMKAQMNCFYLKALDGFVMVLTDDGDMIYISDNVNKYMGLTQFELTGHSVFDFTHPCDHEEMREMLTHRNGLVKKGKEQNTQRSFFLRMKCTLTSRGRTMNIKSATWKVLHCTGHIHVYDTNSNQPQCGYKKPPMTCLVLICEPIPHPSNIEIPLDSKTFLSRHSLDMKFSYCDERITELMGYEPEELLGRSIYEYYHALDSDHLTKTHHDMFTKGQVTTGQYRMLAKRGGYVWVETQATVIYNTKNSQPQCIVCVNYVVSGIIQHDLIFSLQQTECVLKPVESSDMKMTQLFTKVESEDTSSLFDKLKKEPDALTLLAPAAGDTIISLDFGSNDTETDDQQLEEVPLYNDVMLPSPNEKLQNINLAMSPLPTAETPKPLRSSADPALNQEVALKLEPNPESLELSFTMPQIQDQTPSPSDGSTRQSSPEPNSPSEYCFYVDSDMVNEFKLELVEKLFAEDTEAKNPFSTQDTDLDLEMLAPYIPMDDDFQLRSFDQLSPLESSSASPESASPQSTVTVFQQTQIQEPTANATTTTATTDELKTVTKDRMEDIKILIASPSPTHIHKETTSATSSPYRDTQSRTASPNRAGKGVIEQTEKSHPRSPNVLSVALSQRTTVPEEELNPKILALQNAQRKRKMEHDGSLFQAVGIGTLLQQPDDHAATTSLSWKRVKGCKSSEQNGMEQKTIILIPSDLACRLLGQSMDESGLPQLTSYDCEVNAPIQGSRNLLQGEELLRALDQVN
# UniProt Q9UBN7: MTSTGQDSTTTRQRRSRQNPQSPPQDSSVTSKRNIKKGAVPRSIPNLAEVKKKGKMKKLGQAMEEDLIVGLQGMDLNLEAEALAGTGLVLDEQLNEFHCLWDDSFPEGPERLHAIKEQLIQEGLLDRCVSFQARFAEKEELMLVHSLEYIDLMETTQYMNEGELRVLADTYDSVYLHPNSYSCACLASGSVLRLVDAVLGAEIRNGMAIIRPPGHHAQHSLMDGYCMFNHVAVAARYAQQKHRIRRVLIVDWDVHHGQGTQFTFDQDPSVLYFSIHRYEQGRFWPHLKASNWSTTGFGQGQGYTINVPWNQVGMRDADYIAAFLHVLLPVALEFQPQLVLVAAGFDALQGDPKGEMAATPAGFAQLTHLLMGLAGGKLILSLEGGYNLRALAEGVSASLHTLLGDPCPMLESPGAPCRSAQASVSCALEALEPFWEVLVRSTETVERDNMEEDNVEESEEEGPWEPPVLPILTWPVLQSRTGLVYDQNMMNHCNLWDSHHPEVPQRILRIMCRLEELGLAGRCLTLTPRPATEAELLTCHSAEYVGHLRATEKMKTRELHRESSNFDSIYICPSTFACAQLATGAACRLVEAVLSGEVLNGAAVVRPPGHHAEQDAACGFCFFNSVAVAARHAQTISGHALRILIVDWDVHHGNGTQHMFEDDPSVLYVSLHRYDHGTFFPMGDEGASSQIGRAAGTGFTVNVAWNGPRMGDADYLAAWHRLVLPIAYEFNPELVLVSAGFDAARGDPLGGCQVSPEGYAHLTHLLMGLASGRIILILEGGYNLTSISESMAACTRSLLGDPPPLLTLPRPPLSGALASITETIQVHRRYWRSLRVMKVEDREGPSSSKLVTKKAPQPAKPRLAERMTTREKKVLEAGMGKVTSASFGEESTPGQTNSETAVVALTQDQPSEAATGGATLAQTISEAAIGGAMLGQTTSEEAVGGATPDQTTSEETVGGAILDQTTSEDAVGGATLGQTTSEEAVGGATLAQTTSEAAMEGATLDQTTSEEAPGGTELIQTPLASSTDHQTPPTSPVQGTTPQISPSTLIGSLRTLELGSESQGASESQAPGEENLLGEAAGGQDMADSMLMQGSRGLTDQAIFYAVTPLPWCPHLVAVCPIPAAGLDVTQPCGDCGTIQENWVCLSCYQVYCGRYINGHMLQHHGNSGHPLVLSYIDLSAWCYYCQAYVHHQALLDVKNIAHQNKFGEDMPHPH
# B1: NAA10 (protein, UniProt P41227 1-235)
# chain: MNIRNARPEDLMNMQHCNLLCLPENYQMKYYFYHGLSWPQLSYIAEDENGKIVGYVLAKMEEDPDDVPHGHITSLAVKRSHRRLGLAQKLMDQASRAMIENFNAKYVSLHVRKSNRAALHLYSNTLNFQISEVEPKYYADGEDAYAMKRDLTQMADELRRHLELKEKGRHVVLGAIENKVESKGNSPPSSGEACREEKGLAAEDSGGDSKDLSEVSETTESTDVKDSSEASDSAS
# B2: HNF4A (protein, UniProt P41235 1-474)
# chain: MRLSKTLVDMDMADYSAALDPAYTTLEFENVQVLTMGNDTSPSEGTNLNAPNSLGVSALCAICGDRATGKHYGASSCDGCKGFFRRSVRKNHMYSCRFSRQCVVDKDKRNQCRYCRLKKCFRAGMKKEAVQNERDRISTRRSSYEDSSLPSINALLQAEVLSRQITSPVSGINGDIRAKKIASIADVCESMKEQLLVLVEWAKYIPAFCELPLDDQVALLRAHAGEHLLLGATKRSMVFKDVLLLGNDYIVPRHCPELAEMSRVSIRILDELVLPFQELQIDDNEYAYLKAIIFFDPDAKGLSDPGKIKRLRSQVQVSLEDYINDRQYDSRGRFGELLLLLPTLQSITWQMIEQIQFIKLFGMAKIDNLLQEMLLGGSPSDAPHAHHPLHPHLMQEHMGTNVIVANTMPTHLSNGQMCEWPRPRGQAATPETPQPSPPGGSGSEPYKLLPGAVATIVKPLSAIPQPTITKQEVI
# Target: hypoxia-inducible factor 1α (human (endogenous in human colon cancer cell lines)) (UniProt Q16665)
# Assay: affinity purification with mass spectrometry; Co-IP of HIF-1α followed by mass spectrometry; cells not given
row,Molecule,binding
1,histone deacetylase 6 (from UniProt Q9UBN7 1-1215) (enzyme),binds
2,B1,binds
3,B2,binds

# — paper PMC11876336
